Results from patent US20110218188A1, “SUBSTITUTED (PYRIDYL)-AZINYLAMINE DERIVATIVES AS FUNGICIDES” (priority 2008, published 2011).
Some results were stated once for a whole list of compounds, not compound by compound.

Experiments:
[1] = system: Leptosphaeria nodorum; experiment: Leptosphaeria test (wheat)/preventive; conditions: 500 ppm of active ingredient, preventive, evaluated 7-9 days after the inoculation
[2] = system: Puccinia triticina; experiment: Puccinia triticina-test (wheat)/preventive; conditions: 1000 ppm of active ingredient, preventive, evaluated 8 days after the inoculation
[3] = system: Fusarium nivale (var. majus); experiment: Fusarium nivale (var. majus)-test (wheat)/preventive; conditions: 1000 ppm of active ingredient, preventive, evaluated 5 days after the inoculation
[4] = system: Uromyces appendiculatus; experiment: Uromyces test (beans)/protective; type: in vivo; conditions: 100 ppm of active ingredient, protective, evaluated 10 days after the inoculation
[5] = system: Venturia inaequalis; experiment: Venturia test (apples)/protective; type: in vivo; conditions: 100 ppm of active ingredient, protective, evaluated 10 days after the inoculation

Measured: efficacy

CC(C)N(C)C(=O)c1cc(-c2ncnc(Nc3ccccc3)n2)ccn1 [Example B317]
≥ 70%: [1] | [2] | [3]

CCCCN(C)C(=O)c1cc(-c2ncnc(Nc3cccc(F)c3)n2)ccn1 [Example B376]
≥ 70%: [4] | [1] | [2] | [3]

COc1cccc(Nc2ncnc(-c3ccnc(C(=O)N(C)CCC#N)c3)n2)c1 [Example B272]
≥ 70%: [5] | [1] | [2] | [3]

CN(CC1CC1)C(=O)c1cc(-c2ncnc(Nc3ccc(F)cc3)n2)ccn1 [Example B17]
≥ 70%: [5] | [4] | [1] | [2] | [3]

CC(C)N(C)C(=O)c1cc(-c2ncnc(Nc3cccc(F)c3)n2)ccn1 [Example B8]
≥ 70%: [5] | [4] | [1] | [2] | [3]

COCCN(C)C(=O)c1cc(-c2ncnc(Nc3cccc(F)c3)n2)ccn1 [Example B9]
≥ 70%: [5] | [1] | [2] | [3]

CCN(CC)C(=O)c1cc(-c2ncnc(Nc3ccc(F)cc3)n2)ccn1 [Example B15]
≥ 70%: [5] | [4] | [1] | [2] | [3]

CC(C)CN(C)C(=O)c1cc(-c2ncnc(Nc3ccc(F)cc3)n2)ccn1 [Example B19]
≥ 70%: [5] | [4] | [1] | [2] | [3]

CCCN(C)C(=O)c1cc(-c2ncnc(Nc3cccc(OC)c3)n2)ccn1 [Example B274]
≥ 70%: [5] | [4] | [1] | [2] | [3]

CCN(CC)C(=O)c1cc(-c2ncnc(Nc3ccsc3)n2)ccn1 [Example C13]
≥ 70%: [5] | [1] | [2] | [3]

CN(C)C(=O)c1cc(-c2ncnc(Nc3cccc(F)c3)n2)ccn1 [Example B5]
≥ 70%: [5] | [4] | [1] | [2] | [3]

CCCN(C)C(=O)c1cc(-c2ncnc(Nc3ccc(Cl)c(C(F)F)c3)n2)ccn1 [Example B387]
≥ 70%: [5] | [1] | [2] | [3]

CN(CC(F)F)C(=O)c1cc(-c2ncnc(Nc3cccc(OC(F)F)c3)n2)ccn1 [Example B370]
≥ 70%: [5] | [4] | [1] | [2]

CN(CC1CC1)C(=S)c1cc(-c2ncnc(Nc3cccc(F)c3)n2)ccn1 [Example B12]
≥ 70%: [5] | [4] | [1] | [2] | [3]

CN(C)C(=O)c1cc(-c2ncnc(Nc3cccc(OC(F)F)c3)n2)ccn1 [Example B300]
≥ 70%: [5] | [1] | [2] | [3]

CCN(C)C(=O)c1cc(-c2ncnc(Nc3ccsc3)n2)ccn1 [Example C17]
≥ 70%: [5] | [1] | [2] | [3]

CN(C)C(=O)c1cc(-c2ncnc(Nc3cccc(C(F)(F)F)c3)n2)ccn1 [Example B355]
≥ 70%: [5] | [1] | [2] | [3]

CCCN(C)C(=S)c1cc(-c2ncnc(Nc3cccc(F)c3)n2)ccn1 [Example B13]
≥ 70%: [5] | [4] | [1] | [2] | [3]

COc1cccc(Nc2ncnc(-c3ccnc(C(=O)N(C)C)c3)n2)c1 [Example B276]
≥ 70%: [5] | [1] | [2]

CN(CCC#N)C(=O)c1cc(-c2ncnc(Nc3ccc(F)c(C(F)F)c3)n2)ccn1 [Example B397]
≥ 70%: [4] | [1] | [2] | [3]

CC(C)N(C)C(=O)c1cc(-c2ncnc(Nc3cccc(C(F)F)c3)n2)ccn1 [Example B290]
≥ 70%: [1] | [2] | [3]

CN(CC(F)F)C(=O)c1cc(-c2ncnc(Nc3ccsc3)n2)ccn1 [Example C21]
≥ 70%: [5] | [4] | [1] | [2] | [3]

CN(CC(F)F)C(=O)c1cc(-c2ncnc(Nc3ccc(F)c(F)c3)n2)ccn1 [Example B382]
≥ 70%: [1] | [2] | [3]

CCCN(C)C(=O)c1cc(-c2ncnc(Nc3cccc(C#N)c3)n2)ccn1 [Example B293]
≥ 70%: [5] | [4] | [1] | [2] | [3]

CCN(CC)C(=O)c1cc(-c2ncnc(Nc3ccc(Cl)c(C(F)F)c3)n2)ccn1 [Example B352]
≥ 70%: [4] | [1] | [2] | [3]

CN(CCC#N)C(=O)c1cc(-c2ncnc(Nc3ccc(F)c(Cl)c3)n2)ccn1 [Example B201]
≥ 70%: [1] | [2] | [3]

CCN(C)C(=S)c1cc(-c2ncnc(Nc3cccc(OC)c3)n2)ccn1 [Example B281]
≥ 70%: [5] | [4] | [1] | [2]

CN(C)C(=O)c1cc(-c2ncnc(Nc3ccsc3)n2)ccn1 [Example C19]
≥ 70%: [5] | [4] | [1] | [2] | [3]

CN(CCC#N)C(=O)c1cc(-c2ncnc(Nc3cccc(OC(F)F)c3)n2)ccn1 [Example B297]
≥ 70%: [5] | [1] | [2] | [3]

CCCN(C)C(=O)c1cc(-c2ncnc(Nc3cccc(OC(F)F)c3)n2)ccn1 [Example B299]
≥ 70%: [1] | [2] | [3]

CN(C)C(=O)c1cc(-c2ncnc(Nc3ccccc3)n2)ccn1 [Example B314]
≥ 70%: [1] | [2] | [3]

CN(CCC#N)C(=O)c1cc(-c2ncnc(Nc3cccc(C(F)F)c3)n2)ccn1 [Example B284]
≥ 70%: [1] | [2] | [3]

CN(C)C(=O)c1cc(-c2ncnc(Nc3ccc(F)cc3)n2)ccn1 [Example B18]
≥ 70%: [1] | [2] | [3]

CN(C)C(=O)c1cc(-c2ncnc(Nc3cccc(OC(F)(F)C(F)F)c3)n2)ccn1 [Example B364]
≥ 70%: [5] | [4] | [1] | [2]
